Measurements reported in PubChem BioAssay AID686943 (Drosophila RNAi Screening Center, 2013)
Test: 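Search across the genome for regulators of signalling from receptor tyrosine kinase to ERK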 (primary screen). Cells: Drosophila S2R+ haemocyte-like cells expressing YFP-tagged ERK (Rolled). Knock-down reagent: long dsRNA against Drosophila genes. Challenge: insulin stimulation versus unstimulated cells; dose and duration not given. Detection: 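Per-plate z-scores of phospho-ERK immunostaining normalised to YFP-tagged ERK, measured with and without insulin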. Direction: replicate 1, z-score of dpERK with insulin: higher = more active ERK per ERK-YFP after insulin.
In all, the deposit lists about 23,000 reagents; shown is an unselected part of those that have a named target and a result. 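Extra replicates exist only for a retested subset of genes; insulin dose and duration not given; both raised and lowered dpERK matter.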 Further read-outs or replicates are left out here. Not given: the amount of reagent, the time to read-out.

Drsl2 [DRSC08160] — replicate 1, z-score of dpERK with insulin = -0.9
Atg10 [DRSC06172] — replicate 1, z-score of dpERK with insulin = 0.18
obst-E [DRSC02128] — replicate 1, z-score of dpERK with insulin = -0.17
CG32087 [DRSC10806] — replicate 1, z-score of dpERK with insulin = -0.08

2 entries from above, reformatted.
| Gene | DRSC id | replicate 1, z-score of dpERK with insulin |
| --- | --- | --- |
| obst-E | DRSC02128 | -0.17 |
| CG32087 | DRSC10806 | -0.08 |

The list goes on.
lncRNA:CR31044 [DRSC22451] — replicate 1, z-score of dpERK with insulin = -0.22
grsm [DRSC14165] — replicate 1, z-score of dpERK with insulin = 0.22
grsm [DRSC14843] — replicate 1, z-score of dpERK with insulin = 0.03
CG31516 [DRSC11994] — replicate 1, z-score of dpERK with insulin = 0.16
CG9485 [DRSC04557] — replicate 1, z-score of dpERK with insulin = -0.59
CG14442 [DRSC17935] — replicate 1, z-score of dpERK with insulin = -1.81
Calx [DRSC13457] — replicate 1, z-score of dpERK with insulin = -0.76
Calx [DRSC13459] — replicate 1, z-score of dpERK with insulin = 0.57
Calx [DRSC16599] — replicate 1, z-score of dpERK with insulin = 0.58
Calx [DRSC21850] — replicate 1, z-score of dpERK with insulin = -0.35
